These are yes or no findings as the source states them, for the method shown. For some assays here: Binding can be weak; no strength is given. For some assays here: In cells and extracts the contact can be indirect.

From publication PMC5007297 come the findings set out here.

The target in experiment [1] is T1, Plk4 (Drosophila) (UniProt O97143).
T1 sequence: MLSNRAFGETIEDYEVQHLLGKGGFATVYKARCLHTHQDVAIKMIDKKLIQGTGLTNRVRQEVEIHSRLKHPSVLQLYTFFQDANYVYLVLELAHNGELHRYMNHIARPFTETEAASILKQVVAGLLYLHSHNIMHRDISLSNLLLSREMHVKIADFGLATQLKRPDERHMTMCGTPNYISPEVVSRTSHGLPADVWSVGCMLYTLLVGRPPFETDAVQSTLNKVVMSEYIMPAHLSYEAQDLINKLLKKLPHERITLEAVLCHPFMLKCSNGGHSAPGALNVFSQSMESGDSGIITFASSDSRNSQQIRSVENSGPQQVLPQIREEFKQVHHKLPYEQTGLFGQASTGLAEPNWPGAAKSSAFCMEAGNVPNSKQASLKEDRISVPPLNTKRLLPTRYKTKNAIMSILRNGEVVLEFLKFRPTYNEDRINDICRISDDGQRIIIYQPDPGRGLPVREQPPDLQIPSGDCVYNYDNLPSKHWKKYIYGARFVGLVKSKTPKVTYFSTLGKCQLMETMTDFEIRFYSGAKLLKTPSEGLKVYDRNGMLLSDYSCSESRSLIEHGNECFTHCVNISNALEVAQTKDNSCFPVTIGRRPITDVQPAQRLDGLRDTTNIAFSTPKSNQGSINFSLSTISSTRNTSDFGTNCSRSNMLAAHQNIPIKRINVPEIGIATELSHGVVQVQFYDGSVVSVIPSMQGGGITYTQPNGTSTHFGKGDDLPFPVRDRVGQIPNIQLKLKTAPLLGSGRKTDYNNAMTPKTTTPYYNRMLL
As to the kind of experiment: two-hybrid; array-based mating screen (modified Matchmaker Gold; Y2HGold x Y187), every construct as bait and as prey; interactions reported at the highest stringency (QDOXA plates), 30 °C, scored 0-3.

Experiment [2] concerns the target T2, Sas-6 (Drosophila) (UniProt Q9VAC8).
T2 sequence: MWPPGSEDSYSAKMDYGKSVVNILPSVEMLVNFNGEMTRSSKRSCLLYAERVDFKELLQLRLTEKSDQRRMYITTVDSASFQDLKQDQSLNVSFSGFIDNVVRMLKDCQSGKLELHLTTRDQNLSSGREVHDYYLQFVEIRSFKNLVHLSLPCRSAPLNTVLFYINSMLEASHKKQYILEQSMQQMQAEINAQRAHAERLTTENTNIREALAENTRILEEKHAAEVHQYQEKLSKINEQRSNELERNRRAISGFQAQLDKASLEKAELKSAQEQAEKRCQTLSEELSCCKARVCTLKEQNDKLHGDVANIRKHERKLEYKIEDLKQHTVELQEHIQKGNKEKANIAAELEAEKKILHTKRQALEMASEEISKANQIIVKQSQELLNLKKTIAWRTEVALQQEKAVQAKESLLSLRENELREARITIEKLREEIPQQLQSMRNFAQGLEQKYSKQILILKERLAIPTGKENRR
The description is as above.

For experiment [3], the target named is T3, Plk4^F2 (aa 382–602) (S2 cell co-IP construct) (Drosophila) (UniProt O97143).
T3 sequence: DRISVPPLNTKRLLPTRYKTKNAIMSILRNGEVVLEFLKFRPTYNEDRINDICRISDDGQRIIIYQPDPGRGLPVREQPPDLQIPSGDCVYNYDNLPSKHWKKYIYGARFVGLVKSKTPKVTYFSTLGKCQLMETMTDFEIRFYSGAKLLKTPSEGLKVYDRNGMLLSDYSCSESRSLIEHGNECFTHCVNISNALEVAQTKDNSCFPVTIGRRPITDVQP
As to the kind of experiment: co-IP; S2 cells transfected with the tagged constructs; anti-GFP (ab290) on Protein A Dynabeads, RIPA or CLB lysis buffer, 30 min at 4 °C; blots with anti-GFP and anti-FLAG.

The target of experiment [4] is T4, Asl^F3 (aa 626–993) (Drosophila) (UniProt Q9VNE4).
T4 sequence: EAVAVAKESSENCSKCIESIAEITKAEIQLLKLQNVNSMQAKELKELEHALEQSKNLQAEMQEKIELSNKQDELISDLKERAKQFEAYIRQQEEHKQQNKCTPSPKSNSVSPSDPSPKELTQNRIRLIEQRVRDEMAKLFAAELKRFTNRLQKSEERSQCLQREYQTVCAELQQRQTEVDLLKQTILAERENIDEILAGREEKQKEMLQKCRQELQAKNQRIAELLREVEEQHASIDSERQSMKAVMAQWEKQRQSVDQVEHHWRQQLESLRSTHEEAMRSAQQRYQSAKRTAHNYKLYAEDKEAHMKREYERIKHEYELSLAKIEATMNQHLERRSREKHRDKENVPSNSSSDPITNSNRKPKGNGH
Nature of the experiment: two-hybrid; array-based mating screen (modified Matchmaker Gold; Y2HGold x Y187), every construct as bait and as prey; interactions reported at the highest stringency (QDOXA plates), 30 °C, scored 0-3.

In experiment [5] the target is T5, Asl (Drosophila) (UniProt Q9VNE4).
T5 sequence: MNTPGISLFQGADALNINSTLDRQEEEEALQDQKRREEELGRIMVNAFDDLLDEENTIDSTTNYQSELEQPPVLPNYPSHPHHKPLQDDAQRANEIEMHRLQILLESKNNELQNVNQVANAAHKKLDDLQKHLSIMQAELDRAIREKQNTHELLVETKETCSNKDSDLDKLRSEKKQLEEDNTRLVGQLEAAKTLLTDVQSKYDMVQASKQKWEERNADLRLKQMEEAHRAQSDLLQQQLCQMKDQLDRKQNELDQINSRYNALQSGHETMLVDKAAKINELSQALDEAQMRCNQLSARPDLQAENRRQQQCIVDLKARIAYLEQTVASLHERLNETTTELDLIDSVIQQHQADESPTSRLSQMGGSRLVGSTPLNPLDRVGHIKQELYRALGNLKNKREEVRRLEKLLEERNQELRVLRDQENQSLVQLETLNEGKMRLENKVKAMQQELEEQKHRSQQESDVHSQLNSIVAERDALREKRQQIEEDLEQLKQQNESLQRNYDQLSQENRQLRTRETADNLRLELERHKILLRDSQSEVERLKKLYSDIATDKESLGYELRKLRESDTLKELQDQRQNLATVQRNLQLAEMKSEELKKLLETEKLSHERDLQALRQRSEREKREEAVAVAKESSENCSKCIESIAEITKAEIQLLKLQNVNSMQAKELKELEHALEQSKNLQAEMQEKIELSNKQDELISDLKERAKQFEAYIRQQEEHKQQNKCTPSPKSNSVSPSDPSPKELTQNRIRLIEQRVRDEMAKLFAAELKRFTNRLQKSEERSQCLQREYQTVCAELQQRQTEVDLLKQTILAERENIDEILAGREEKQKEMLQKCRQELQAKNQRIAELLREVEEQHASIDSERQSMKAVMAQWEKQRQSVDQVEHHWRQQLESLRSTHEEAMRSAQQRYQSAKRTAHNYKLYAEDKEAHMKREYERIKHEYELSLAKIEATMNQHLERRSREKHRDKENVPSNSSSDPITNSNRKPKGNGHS
Described as above.

On to Ana1 (Drosophila), for which the binding entry in experiment [1] and in experiment [2] was “binds” in each case.
Regarding CP110 (Drosophila), the binding entry in experiment [1] is recorded as “binds”.
Same read-out and setting: next, Cep135 (Drosophila): “binds”.
On to “Cep135 (S2 cell co-IP with Plk4) (Drosophila)”, for which the binding result in experiment [3] is given as “binds”.
Consider Cep135^FL-9A (Drosophila), for which the binding result in experiment [4] is “no binding”.
Same read-out and setting: next, Cep135^FL-WT (Drosophila): “no binding”.
As for Cnn (Drosophila), in experiment [5], the binding result is reported as “binds”.
